# From patent US20040259942A1, “Modulation of stat activity” (priority 2001, published 2004)
# At least one compound was matched to its structure with a doubt left.
# System: Akt/PKB
# Test: Akt/PKB S473 phosphorylation in serum-stimulated cells (P13K survival pathway)
# Assay type: cell-based, human
# Details: BR293, MCF-7 and MDA-MB-468 cells; Wortmannin 200 nM, AHLs 100 μM
# Procedure: Cell lysates were then prepared and analysed by Western blotting for Akt/PKB phosphorylation with an antibody specific for Akt/PKB phosphorylated on S473 (p-Akt, upper panel) and subsequently for total Akt/PKB content with an antibody for Akt/PKB (lower panel).
# In the bottom section of FIG. 21, BR293 cells were serum-starved (lane 1) or starved and stimulated with 10% FCS for 2 hours alone (lane 2) or in the presence of increasing concentrations of OdDHL (lanes 3-6) or 100 μM OHHL (lane 7) or 200 nM Wortmannin (lane 8). Cell lysates were prepared and analysed by Western blotting for Akt/PKB phosphorylation with an antibody specific for Akt/PKB phosphorylated on S473 (upper panel) and subsequently for total Alt/PKB content with an antibody for Akt/PKB (lower panel).
smiles,measurement,value
"COC[C@H]1OC(=O)c2coc3c2[C@@]1(C)C1=C(C3=O)[C@@H]2CCC(=O)[C@@]2(C)C[C@H]1OC(C)=O [Wortmannin, reference compound]",Akt/PKB phosphorylation in serum-stimulated cells,blocked
